Measured values as given in PubChem BioAssay AID2662 (National Center for Advancing Translational Sciences (NCATS), 2010).
Hit rate of the full screen: of about 290,000 compounds, about 110 (0.038%) were called active. Inconclusive results, whose numbers are uncertain, are shown with a selection of clear calls. Calls follow the shape of the dose curve; as a rule, active = well fitted inhibition curve with a large enough effect in the polarisation, with a control signal flat (not every such curve was filed as active); inconclusive = small, poorly fitted or top-dose-only effect, or effect the other way, or a change in a side signal; inactive = no such curve, though single readings can be large or run the other way; the % refers to the polarisation. A potency beside an inconclusive call is a rough fit, not a confirmed value. A note “side channel” means that the fit belongs to a control or component signal, not to the main read-out.

Amino acid sequences for entries named in this document (tags omitted).
UniProt Q03164, whole entry, looked up: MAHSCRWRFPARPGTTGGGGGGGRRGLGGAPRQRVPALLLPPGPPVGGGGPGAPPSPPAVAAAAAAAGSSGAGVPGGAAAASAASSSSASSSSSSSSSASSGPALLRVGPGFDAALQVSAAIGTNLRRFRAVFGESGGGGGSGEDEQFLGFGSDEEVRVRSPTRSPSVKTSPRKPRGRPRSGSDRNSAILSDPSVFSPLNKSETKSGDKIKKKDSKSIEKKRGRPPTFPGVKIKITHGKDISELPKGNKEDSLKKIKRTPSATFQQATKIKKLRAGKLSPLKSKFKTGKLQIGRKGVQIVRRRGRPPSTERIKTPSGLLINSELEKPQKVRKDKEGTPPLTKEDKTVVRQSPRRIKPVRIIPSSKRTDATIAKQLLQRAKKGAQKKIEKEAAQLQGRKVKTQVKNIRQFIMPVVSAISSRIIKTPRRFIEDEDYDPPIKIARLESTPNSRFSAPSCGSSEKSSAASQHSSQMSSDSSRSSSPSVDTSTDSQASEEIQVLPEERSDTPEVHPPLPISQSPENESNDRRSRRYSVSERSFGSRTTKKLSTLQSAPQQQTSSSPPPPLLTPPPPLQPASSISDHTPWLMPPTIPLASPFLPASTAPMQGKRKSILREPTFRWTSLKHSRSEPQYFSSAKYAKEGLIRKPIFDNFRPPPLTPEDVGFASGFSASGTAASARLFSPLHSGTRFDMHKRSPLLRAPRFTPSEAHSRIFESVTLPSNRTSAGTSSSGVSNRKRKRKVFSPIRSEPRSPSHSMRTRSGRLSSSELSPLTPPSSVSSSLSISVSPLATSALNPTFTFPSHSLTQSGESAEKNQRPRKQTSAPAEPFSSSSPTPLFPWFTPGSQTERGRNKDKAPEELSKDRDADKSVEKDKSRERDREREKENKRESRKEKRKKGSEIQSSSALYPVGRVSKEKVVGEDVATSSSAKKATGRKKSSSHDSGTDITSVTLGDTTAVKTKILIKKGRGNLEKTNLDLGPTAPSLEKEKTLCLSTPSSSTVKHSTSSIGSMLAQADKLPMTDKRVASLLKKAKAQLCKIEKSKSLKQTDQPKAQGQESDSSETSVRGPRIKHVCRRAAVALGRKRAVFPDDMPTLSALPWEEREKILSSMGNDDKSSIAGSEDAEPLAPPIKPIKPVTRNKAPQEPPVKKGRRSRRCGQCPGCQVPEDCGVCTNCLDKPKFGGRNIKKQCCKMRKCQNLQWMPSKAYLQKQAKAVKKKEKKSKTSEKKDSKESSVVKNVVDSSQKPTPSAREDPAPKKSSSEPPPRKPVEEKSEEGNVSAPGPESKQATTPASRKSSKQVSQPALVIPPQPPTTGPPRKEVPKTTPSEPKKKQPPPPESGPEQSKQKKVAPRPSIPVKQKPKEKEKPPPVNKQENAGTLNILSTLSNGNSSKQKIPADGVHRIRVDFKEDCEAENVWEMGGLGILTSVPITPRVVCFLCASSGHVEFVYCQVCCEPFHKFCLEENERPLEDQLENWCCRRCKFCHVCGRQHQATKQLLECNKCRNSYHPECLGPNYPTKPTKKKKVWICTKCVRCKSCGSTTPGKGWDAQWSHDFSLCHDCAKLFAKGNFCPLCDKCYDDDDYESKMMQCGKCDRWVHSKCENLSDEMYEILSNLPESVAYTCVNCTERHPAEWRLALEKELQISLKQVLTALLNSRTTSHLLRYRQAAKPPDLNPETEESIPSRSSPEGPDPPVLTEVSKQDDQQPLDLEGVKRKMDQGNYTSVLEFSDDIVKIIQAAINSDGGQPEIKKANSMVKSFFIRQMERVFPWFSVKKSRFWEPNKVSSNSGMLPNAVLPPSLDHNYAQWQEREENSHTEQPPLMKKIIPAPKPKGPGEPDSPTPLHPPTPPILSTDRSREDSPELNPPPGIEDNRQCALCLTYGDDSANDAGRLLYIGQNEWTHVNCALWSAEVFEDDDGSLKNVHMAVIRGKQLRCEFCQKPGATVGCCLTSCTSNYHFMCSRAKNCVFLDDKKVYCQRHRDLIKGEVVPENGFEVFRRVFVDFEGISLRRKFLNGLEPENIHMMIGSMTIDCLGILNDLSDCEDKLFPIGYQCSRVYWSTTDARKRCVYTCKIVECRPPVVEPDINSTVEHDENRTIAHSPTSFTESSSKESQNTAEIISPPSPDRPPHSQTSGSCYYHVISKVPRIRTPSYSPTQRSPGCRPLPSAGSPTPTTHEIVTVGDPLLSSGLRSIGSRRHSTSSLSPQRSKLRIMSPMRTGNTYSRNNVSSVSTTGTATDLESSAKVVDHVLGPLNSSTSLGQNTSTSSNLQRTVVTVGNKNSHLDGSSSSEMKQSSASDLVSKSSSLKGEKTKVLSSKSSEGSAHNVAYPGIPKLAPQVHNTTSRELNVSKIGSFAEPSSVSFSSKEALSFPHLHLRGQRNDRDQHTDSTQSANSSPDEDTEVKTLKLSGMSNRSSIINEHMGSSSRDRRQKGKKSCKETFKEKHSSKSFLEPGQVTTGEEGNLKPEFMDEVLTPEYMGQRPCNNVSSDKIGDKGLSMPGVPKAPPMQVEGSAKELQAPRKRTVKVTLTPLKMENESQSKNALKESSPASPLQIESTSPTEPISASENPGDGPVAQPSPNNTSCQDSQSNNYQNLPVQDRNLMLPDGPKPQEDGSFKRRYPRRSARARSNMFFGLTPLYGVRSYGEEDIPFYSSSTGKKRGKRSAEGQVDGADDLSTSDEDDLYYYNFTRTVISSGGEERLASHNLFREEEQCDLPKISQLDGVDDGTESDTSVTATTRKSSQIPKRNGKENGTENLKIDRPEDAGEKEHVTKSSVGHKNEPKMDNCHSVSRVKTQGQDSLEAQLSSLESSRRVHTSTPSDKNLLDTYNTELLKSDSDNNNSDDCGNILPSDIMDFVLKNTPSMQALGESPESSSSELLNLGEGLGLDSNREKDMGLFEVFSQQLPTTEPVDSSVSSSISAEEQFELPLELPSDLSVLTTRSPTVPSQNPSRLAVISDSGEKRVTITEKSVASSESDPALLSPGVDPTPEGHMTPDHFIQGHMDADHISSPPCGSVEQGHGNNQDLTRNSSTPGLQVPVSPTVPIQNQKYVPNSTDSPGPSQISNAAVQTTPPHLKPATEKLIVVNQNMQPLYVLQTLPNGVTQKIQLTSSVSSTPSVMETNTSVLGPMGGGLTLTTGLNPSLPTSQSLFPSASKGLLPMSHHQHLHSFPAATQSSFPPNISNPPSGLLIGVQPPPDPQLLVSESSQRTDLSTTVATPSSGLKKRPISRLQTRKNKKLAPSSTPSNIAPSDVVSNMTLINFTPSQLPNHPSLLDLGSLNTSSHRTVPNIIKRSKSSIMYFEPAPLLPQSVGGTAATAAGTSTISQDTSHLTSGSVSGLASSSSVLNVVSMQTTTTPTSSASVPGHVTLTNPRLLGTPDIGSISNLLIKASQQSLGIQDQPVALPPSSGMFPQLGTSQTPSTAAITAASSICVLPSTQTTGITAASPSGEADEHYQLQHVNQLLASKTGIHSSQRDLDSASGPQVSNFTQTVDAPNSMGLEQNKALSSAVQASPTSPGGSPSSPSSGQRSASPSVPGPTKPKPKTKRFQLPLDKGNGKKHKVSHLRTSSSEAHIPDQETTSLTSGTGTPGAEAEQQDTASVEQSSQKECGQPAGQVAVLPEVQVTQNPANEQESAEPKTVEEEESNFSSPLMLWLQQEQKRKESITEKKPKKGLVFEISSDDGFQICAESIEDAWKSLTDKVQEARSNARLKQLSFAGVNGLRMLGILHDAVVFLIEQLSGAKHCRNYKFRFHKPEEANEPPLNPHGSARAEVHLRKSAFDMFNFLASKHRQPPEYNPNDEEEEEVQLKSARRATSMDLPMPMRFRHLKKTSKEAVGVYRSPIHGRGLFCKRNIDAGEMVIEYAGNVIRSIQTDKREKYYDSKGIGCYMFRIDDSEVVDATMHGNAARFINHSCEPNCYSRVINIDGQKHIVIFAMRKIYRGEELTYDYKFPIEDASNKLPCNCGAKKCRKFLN

Molecular target: Histone-lysine N-methyltransferase 2A (Homo sapiens) (UniProt Q03164)
Test: qHTS Fluorescence Polarization Assay for Inhibitors of MLL CXXC domain - DNA interaction
Conditions: MLL-CXXC / FITC-HOXA9 DNA fluorescence polarization; activity change, negative = inhibition: at 115 µM (top of the series)
In short: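 Fluorescence polarization: 7 uM MLL-CXXC (stock) preincubated 5 min with compounds, then 50 nM fluorescein-HOX-A9 DNA (stock) added; 30 min ambient. Buffer 50 mM Tris-HCl pH 7.5, 50 mM NaCl, 1 mM DTT, 0.05% BSA.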
Potency is read from the fitted curve at half-maximal effect.

SMILES	Potency	activity change, negative = inhibition
Cc1cc(C)c(-n2c(O)c(/C=N/N3CCCCC3c3cccnc3)c(=O)[nH]c2=O)c(C)c1 (centres undefined)	inconclusive: 14.1 µM [inhibitor, single point]	
C=CCN1CCc2cccc3c2[C@H]1Cc1ccc(O)c(O)c1-3		inactive: 3.9%
Cc1cc(C)cc(N2C(=O)NC(=O)/C(=C\c3cccn3-c3ccc(Cl)cc3)C2=O)c1	inconclusive: 28.2 µM [inhibitor, partial curve]	
CCC1(c2ccccc2)C(=O)NC(=O)N(C(=O)c2ccccc2)C1=O (centres undefined)	inconclusive: 112 µM [fluorescent, side channel, partial curve, poor fit]	
COc1ccc(Cn2c(N)c(C(=O)NCc3ccco3)c3nc4ccccc4nc32)cc1		inactive: -1.41%
CCCN1CCCC(c2cccc(O)c2)C1 (centres undefined)		inactive: -4.52%
Cc1cc(/C=C2\C(=O)NC(=O)N(c3cccc(Br)c3)C2=O)c(C)n1C		inactive: 8.08%
O=C(/C=C/c1ccccc1)c1c(O)n(CCc2ccccc2)c(=O)[nH]c1=O	inconclusive: 5.01 µM [inhibitor, single point]	
O=C(c1ccc2nc(-c3ccco3)c(-c3ccco3)nc2c1)N1CCC2(CC1)OCCO2	inconclusive: 8.91 µM [fluorescent, side channel, partial curve]	
Nc1nonc1OCCCCOc1nonc1N	inconclusive: 14.1 µM [fluorescent, side channel, single point]	
Cc1cccc(-n2c(O)c(/C=C/C=Nc3ccccc3)c(=O)[nH]c2=O)c1	inconclusive: 39.8 µM [fluorescent, side channel, partial curve]	
CCOC(=O)c1c(-n2c(C)cc(C=C3C(=O)NC(=S)NC3=O)c2C)sc2c1CCCC2	inconclusive: 70.8 µM [fluorescent, side channel, single point]	
Cc1ccc(N2C(=O)/C(=C/c3ccc(CN(CCC#N)S(C)(=O)=O)o3)C(=O)NC2=S)cc1C	inconclusive: 28.2 µM [fluorescent, side channel, partial curve]	
COc1ccc(C(=O)/C=C/c2cccs2)c(OC(=O)N2CCOCC2)c1	inconclusive: 56.2 µM [inhibitor, single point]	
O=C(O)c1c(C(=O)O)c(-c2ccc(Br)cc2)n2c1CSC2	inconclusive: 10 µM [fluorescent, side channel, single point]	
CCOc1ccc(N2C(=O)/C(=C/c3ccco3)C(=O)NC2=S)cc1	inconclusive: 31.6 µM [inhibitor, partial curve]	
COC(=O)c1nc(-c2ccc3c(n2)C(=O)C(N)=C(OC)C3=O)c(N)c(-c2ccc(OC)c(OC)c2O)c1C	inconclusive: 7.94 µM [inhibitor, full curve, poor fit]	
CCOc1cccc(=NC2CCCCC2)c2c(C)[nH]c(C)c12	inconclusive: 39.8 µM [quencher, side channel, single point]	
O=C1NC(=O)N(c2ccccc2)C(=O)/C1=C/c1ccc(Sc2ccccc2)o1		inactive: 2.74%
Cc1ccc(-n2c(C)nc3cc(Cl)ccc3c2=O)nc1	inconclusive: 56.2 µM [fluorescent, side channel, single point]	

Look-ups from the results shown.
Potency, Nc1nonc1OCCCCOc1nonc1N is entered as inconclusive: 14.1 µM [fluorescent, side channel, single point]
Potency, O=C(c1ccc2nc(-c3ccco3)c(-c3ccco3)nc2c1)N1CCC2(CC1)OCCO2 is entered as inconclusive: 8.91 µM [fluorescent, side channel, partial curve]
Potency, Cc1cc(C)cc(N2C(=O)NC(=O)/C(=C\c3cccn3-c3ccc(Cl)cc3)C2=O)c1 is entered as inconclusive: 28.2 µM [inhibitor, partial curve]

More results

SMILES	Potency	activity change, negative = inhibition
COc1ccc(/C=C2/C(=O)NC(=O)N(c3ccc(C)c(C)c3)C2=O)cc1CN1C(=O)c2ccccc2C1=O	inconclusive: 8.91 µM [inhibitor, single point]	
C[n+]1c2cc(N)ccc2cc2ccc(N)cc21	inconclusive: 39.8 µM [fluorescent, side channel, full curve, poor fit]	
CN1CCN(c2ccc([N+](=O)[O-])c3no[n+]([O-])c23)CC1	inconclusive: 44.7 µM [fluorescent, side channel, single point]	
Clc1cccc(N2CCNCC2)c1		inactive: 4.86%
COc1cccc(CNC(=O)c2cccc(S(=O)(=O)N3CCN(C)CC3)c2)c1	inconclusive: 8.91 µM [fluorescent, side channel, single point]	
COC([CH2][Hg])CNC(=O)c1ccccc1OCC(=O)O (centres undefined)		inactive: 0.129%
Cc1cc(C)cc(N2C(=O)/C(=C\c3ccc(N4CCN(C)CC4)o3)C(=O)NC2=S)c1	inconclusive: 31.6 µM [fluorescent, side channel, partial curve]	
Cn1cccc1/C=C1\C(=O)NC(=O)N(Cc2ccccc2Cl)C1=O	inconclusive: 20 µM [inhibitor, partial curve]	
Nc1c(C(=O)NCC2CCCO2)c2nc3ccccc3nc2n1Cc1ccco1 (centres undefined)		inactive: -14.3%
CC1C(C)N1CC(O)Cn1ccnc1[N+](=O)[O-] (centres undefined)	inconclusive: 14.1 µM [fluorescent, single point]	
CN1CCN(c2ccc(/C=C3\C(=O)NC(=S)N(c4cccc(Br)c4)C3=O)o2)CC1	inconclusive: 63.1 µM [fluorescent, side channel, single point]	
CC(=O)N1CC(=O)Nc2ccc(Br)cc2C1c1ccc(F)cc1 (centres undefined)	inconclusive: 8.91 µM [inhibitor, single point]	
COc1ccc(-n2c(O)c(/C=C3\C=Nc4ccc(Br)cc43)c(=O)[nH]c2=O)cc1	inconclusive: 44.7 µM [fluorescent, side channel, single point]	
COc1ccccc1-n1c(-c2ccco2)n[nH]c1=S	inconclusive: 63.1 µM [inhibitor, single point]	
O=C(O)Cn1cc(/C=C2\C(=O)NC(=O)N(c3ccc(F)cc3)C2=O)c2ccccc21	inconclusive: 17.8 µM [inhibitor, partial curve]	
O=C1NC(=O)N(Cc2ccccc2)C(=O)/C1=C/c1cnn(-c2ccccc2)c1	inconclusive: 31.6 µM [inhibitor, partial curve]	
Cn1c(O)c(Cc2ccc(OCc3ccccc3)cc2)c(=O)n(C)c1=O	inconclusive: 56.2 µM [inhibitor, single point]	
CCCCCc1cc(O)c2c(c1)OC(C)(C)C1CC=C(C)CC21 (centres undefined)		inactive: 0.864%
Cn1c(O)c(/C=C/C=Nc2ccccc2)c(=O)n(C)c1=S	inconclusive: 1 µM [fluorescent, full curve, poor fit]	
